The values that follow come from article PMC9859754, “Multivalent interactions facilitate motor-dependent protein accumulation at growing microtubule plus-ends” (Nature Cell Biology, 2022).

These are yes or no findings as the source states them, for the method shown. Some binding calls cover weakened binding; strength is not graded here. Sequences can lack the tags named with a protein.

Experiment [1] addresses T1, Mal3-Alexa647 (S. pombe) (UniProt Q10113).
T1 sequence (chain, Alexa Fluor 647 (TFP ester labelling, sites not stated)): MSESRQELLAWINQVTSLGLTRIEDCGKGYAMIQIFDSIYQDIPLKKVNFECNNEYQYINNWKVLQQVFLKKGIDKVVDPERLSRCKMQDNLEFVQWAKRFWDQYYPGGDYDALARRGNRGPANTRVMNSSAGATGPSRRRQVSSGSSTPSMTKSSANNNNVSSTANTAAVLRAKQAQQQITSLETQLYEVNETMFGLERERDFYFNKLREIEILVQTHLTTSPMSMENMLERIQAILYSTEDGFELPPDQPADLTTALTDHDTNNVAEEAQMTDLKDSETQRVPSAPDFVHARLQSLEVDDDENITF
Description: TIRF microscopy of purified fluorescent proteins on microtubules; plus-end-tracking reconstitution without PEG: 200 nM Mal3 or Mal3 construct, 20 nM Tea2, 150 nM Tip1 together on dynamic microtubules grown from surface-bound GMPCPP seeds; MRB80, 50 mM KCl, 14.5 µM tubulin, 0.5 µM rhodamine tubulin, 1 mM GTP, 2 mM ATP, 0.1% methylcellulose; both purified.

Experiment [2] deals with T2, Full-length S. pombe Tea2, unlabelled (S. pombe) (UniProt Q1MTQ1).
T2 sequence: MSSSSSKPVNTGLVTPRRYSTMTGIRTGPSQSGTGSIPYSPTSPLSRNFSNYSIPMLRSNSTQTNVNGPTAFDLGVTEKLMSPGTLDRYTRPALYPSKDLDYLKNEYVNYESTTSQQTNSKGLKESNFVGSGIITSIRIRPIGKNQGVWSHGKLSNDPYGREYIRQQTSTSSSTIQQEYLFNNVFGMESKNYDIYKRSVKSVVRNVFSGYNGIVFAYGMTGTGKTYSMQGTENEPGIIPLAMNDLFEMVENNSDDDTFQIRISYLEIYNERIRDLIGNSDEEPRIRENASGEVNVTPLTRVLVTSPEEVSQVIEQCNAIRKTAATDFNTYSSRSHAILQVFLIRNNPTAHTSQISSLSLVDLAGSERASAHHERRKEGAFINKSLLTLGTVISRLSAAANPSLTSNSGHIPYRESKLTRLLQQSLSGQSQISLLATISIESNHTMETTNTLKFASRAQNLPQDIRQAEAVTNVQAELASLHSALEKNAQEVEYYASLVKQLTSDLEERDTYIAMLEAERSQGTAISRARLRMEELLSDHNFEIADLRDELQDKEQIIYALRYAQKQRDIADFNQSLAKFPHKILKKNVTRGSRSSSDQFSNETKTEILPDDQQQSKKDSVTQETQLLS
Described as above.

B1: Tip1:GFP (protein, UniProt P79065 1-461)
chain: MFPLGSVVEVITGERGFVRYAGEVENRKGVYVGLELLPEFAEFGKNRGVVDGREYFKTKNNEKTGIFVPFDKCKLASSISSSPSPKIDGTAASIGMGFPPMSPNLQSSIPRLTNVSSSSNLSMNTISSTALTPTEKILQKRIEDLLYERQNHQQQLEEVLATVDQLQSLVTNFNDQQDEVDELRERITLKEERIQQMRNEASQRRFEFKTTIECLEESSNRAIETYENRIAELEAQLEMYMSGKSEDDLLFSLQQERDYALNQVEILQERVDTLMKQKANSSTANEKLSHMESSSPTLTNASFESPKRGKGSNDLPENHPQRRQTLEFYEIEIEVLREKVEKLQALSDEKDFYISKLEKSLDRNDTTPVPSDEKLSNYAAEKENLVSRISELEHTIEQLTINNERDNERMSPAEFELETTQEVEENDSDSHDDEETWCEVCETNNHSLQECPTVFGSTDEA
For B1, the binding entry in experiment [1] and in experiment [2] was “binds” each time.
